Results published in PMC10702821.
These are yes or no findings as the source states them, for the method shown. Binding seen in cells or lysates may run through a third protein. Here binding means that the protein was enriched with, or labelled near, the bait; the list need not be complete.

Amino acid sequences for entries named in this document (tags omitted).
UniProt Q12888: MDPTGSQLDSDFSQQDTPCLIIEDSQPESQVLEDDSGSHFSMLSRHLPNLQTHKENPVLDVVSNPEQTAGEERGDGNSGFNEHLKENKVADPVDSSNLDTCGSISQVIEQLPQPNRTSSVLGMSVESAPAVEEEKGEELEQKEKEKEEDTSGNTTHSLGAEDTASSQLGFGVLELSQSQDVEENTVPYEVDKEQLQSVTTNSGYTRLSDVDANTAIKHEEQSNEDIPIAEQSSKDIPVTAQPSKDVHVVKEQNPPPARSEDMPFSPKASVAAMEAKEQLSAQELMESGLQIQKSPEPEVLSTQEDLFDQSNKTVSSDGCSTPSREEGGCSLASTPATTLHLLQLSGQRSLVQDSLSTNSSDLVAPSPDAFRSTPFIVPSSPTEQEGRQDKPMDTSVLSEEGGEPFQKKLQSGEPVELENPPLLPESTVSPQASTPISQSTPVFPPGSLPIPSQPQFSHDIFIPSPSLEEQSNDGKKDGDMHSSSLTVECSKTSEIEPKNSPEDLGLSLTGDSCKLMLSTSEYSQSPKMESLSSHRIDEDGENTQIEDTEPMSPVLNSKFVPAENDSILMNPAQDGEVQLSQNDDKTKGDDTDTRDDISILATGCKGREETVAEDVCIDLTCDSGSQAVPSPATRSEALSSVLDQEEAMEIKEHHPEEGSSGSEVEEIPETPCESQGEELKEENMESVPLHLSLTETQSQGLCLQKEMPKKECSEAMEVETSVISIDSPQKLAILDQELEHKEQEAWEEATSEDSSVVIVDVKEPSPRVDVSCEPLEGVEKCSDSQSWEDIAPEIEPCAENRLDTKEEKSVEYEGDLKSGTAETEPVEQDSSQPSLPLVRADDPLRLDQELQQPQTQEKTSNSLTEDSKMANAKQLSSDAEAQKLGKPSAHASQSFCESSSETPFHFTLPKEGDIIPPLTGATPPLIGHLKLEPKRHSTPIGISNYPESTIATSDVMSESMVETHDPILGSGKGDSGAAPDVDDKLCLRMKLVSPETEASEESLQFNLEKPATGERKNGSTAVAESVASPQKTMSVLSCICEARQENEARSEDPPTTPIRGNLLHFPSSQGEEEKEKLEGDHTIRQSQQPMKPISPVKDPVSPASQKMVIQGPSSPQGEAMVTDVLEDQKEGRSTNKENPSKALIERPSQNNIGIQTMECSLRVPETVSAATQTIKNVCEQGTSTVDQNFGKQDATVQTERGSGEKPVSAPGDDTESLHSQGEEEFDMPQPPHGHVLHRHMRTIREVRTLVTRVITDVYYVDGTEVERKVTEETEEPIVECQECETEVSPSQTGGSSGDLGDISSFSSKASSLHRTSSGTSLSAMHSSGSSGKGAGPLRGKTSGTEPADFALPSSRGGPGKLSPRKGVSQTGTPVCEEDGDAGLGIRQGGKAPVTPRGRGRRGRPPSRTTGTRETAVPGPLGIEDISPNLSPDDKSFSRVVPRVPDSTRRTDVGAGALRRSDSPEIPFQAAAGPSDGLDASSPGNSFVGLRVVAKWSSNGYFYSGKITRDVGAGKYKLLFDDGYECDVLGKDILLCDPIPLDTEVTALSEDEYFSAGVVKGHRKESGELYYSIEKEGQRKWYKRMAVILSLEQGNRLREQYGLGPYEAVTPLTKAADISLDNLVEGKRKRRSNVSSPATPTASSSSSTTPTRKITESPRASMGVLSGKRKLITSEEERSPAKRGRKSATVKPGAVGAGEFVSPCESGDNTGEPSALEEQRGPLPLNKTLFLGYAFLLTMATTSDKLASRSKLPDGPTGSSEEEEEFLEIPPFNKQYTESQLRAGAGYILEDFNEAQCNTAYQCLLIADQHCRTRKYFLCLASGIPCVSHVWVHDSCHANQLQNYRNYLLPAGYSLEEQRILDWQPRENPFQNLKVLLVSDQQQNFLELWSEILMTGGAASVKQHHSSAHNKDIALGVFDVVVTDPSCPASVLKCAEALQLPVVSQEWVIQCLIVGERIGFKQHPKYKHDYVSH
UniProt P49454: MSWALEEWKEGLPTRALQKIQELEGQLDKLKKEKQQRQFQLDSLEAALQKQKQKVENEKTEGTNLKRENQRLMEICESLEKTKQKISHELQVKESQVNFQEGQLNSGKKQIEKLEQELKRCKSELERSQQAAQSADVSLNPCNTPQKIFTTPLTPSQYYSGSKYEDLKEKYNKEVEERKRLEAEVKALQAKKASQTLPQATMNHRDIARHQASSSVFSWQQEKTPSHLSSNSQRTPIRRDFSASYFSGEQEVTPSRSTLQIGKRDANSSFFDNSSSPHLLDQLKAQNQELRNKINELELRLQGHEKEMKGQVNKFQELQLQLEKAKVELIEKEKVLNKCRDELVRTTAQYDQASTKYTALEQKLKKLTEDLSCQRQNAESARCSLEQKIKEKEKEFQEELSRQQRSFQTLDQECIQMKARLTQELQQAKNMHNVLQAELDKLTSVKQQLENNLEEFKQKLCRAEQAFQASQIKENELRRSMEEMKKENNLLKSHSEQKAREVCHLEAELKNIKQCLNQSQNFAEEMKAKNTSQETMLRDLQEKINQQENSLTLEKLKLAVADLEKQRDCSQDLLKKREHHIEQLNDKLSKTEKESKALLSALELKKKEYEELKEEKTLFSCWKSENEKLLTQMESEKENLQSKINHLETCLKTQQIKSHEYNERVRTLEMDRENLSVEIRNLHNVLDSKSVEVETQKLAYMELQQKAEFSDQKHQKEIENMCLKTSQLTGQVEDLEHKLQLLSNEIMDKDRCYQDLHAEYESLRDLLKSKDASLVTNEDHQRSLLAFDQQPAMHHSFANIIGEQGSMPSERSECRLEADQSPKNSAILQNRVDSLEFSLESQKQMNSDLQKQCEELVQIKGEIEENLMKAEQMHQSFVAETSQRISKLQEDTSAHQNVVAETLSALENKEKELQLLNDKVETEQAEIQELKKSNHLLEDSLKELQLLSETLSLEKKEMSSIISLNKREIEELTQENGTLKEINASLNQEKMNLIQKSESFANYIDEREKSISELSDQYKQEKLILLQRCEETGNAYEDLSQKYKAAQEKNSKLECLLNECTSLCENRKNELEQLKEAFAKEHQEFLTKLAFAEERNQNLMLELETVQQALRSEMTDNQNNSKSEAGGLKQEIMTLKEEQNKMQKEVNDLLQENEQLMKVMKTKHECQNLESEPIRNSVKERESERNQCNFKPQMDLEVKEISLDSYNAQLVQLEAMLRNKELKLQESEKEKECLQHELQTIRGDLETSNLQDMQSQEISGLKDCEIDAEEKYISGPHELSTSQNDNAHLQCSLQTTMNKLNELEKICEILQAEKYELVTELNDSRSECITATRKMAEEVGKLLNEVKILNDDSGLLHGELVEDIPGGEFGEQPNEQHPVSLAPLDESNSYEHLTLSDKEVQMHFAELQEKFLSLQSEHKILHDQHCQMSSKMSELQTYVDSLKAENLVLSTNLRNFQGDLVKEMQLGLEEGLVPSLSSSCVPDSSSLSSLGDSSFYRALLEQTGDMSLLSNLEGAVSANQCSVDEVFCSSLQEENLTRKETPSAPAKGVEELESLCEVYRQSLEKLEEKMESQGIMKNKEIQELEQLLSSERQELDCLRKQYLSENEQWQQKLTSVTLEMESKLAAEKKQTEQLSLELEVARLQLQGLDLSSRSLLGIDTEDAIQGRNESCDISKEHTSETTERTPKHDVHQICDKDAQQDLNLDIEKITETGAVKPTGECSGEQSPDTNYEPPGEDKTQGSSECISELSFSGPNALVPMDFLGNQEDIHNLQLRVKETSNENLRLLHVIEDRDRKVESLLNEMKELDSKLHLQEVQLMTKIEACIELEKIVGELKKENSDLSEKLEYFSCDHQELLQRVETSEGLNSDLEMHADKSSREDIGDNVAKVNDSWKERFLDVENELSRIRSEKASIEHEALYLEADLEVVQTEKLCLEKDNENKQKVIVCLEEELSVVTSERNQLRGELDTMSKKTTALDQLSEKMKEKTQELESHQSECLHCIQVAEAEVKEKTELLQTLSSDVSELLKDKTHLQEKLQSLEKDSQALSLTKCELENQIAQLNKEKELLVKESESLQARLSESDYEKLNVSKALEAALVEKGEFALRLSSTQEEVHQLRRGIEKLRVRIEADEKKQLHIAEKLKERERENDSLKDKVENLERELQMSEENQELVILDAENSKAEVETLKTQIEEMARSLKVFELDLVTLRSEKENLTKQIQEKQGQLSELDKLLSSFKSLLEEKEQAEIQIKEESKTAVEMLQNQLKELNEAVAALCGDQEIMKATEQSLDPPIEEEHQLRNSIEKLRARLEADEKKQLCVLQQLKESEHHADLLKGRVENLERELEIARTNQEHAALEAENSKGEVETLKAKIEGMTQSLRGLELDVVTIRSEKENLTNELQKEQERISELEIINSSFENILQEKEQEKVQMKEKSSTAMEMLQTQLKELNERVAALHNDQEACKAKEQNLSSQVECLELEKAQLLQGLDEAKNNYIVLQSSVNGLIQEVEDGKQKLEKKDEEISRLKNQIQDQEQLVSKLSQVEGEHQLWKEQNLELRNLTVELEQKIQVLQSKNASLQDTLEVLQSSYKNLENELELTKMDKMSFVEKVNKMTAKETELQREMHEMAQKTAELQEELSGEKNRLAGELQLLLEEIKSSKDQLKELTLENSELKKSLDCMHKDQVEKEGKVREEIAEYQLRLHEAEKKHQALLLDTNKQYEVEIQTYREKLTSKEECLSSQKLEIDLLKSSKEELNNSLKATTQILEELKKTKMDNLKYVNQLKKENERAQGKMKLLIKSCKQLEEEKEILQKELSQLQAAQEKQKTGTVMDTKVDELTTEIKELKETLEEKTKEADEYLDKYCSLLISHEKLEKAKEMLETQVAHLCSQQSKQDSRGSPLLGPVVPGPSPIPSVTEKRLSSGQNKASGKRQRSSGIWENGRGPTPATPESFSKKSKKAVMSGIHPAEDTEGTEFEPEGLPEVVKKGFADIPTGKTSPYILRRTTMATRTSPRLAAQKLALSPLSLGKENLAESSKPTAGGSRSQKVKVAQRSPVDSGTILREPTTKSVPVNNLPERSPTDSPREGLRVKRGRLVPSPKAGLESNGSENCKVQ
UniProt Q9BRJ7: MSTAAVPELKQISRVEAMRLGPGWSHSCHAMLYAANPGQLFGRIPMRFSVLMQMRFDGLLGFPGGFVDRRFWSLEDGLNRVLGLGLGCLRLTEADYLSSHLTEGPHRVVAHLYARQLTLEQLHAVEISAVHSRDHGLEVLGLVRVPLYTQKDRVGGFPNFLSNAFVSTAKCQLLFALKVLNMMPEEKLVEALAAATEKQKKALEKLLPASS
UniProt P53350: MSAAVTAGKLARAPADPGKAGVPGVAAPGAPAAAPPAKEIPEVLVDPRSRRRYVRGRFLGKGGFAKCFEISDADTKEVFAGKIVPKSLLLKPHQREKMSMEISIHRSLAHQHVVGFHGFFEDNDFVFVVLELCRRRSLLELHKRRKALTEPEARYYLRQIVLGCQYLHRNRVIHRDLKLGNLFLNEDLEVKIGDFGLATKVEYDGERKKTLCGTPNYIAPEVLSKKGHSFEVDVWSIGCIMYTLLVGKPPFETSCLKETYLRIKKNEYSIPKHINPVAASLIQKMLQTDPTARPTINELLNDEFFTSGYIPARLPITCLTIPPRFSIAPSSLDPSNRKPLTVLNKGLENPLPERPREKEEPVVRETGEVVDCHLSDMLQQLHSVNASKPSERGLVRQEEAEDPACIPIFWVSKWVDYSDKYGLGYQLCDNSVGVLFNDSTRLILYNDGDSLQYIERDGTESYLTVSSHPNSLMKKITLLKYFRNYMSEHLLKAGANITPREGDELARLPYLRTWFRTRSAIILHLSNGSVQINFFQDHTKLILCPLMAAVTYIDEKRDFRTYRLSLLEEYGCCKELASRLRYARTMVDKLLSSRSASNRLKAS

Target: 53BP1-V5 (endogenous 53BP1 with a biallelic V5-epitope tag at the C-terminus) (human (endogenous in hTERT-RPE1)) (UniProt Q12888)
Assay: affinity purification with mass spectrometry; anti-V5 immunoprecipitation (protein A resin, 4 h, 4°C) from lysate of RPE1 53BP1-V5 knock-in cells synchronised in prometaphase (thymidine, then nocodazole 10 h, mitotic shake-off); untagged RPE1 WT mitotic cells as control; LC-MS/MS

Row | Substance | binding
1 | CENP-F (endogenous, RPE1 cells) (from UniProt P49454 1-3114) | binds
2 | NUDT16L1/TIRR (from UniProt Q9BRJ7 1-211) | binds
3 | Polo-like kinase 1 (PLK1) (from UniProt P53350 1-603) (enzyme) | binds
